Test results published in the supplement of paper PMC10689618.
Some of the results follow. Single values are uncertain, as repeats are few or missing.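 Labelled rat cortical synaptosomes were engulfed by primary human fetal astrocytes. Engulfment equaled a red/green ratio, corrected for calcein live-cell signal and normalized to the plate median. Compounds were toxic when calcein dropped over 30%, and reduced phagocytosis when below 70% of the median above 5 µM.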

Tests used:
[1] = test system: Human fetal astrocytes; assay: loss of total cells relative to no-compound high-control median (toxicity); higher = more toxic (fewer cells); conditions: 24 h
[2] = test system: Human fetal astrocytes; assay: synaptosome phagocytosis (pHrodo/calcein intensity ratio) relative to plate median of data wells; higher = more phagocytosis; conditions: 24 h

SMILES | loss of total cells ([1]; 1.39 µM) [%] | loss of total cells ([1]; 2.78 µM) [%] | loss of total cells ([1]; 5.56 µM) [%] | loss of total cells ([1]; 11.11 µM) [%] | loss of total cells ([1]; 22.22 µM) [%] | synaptosome phagocytosis ([2]; 1.39 µM) [%] | synaptosome phagocytosis ([2]; 2.78 µM) [%] | synaptosome phagocytosis ([2]; 5.56 µM) [%] | synaptosome phagocytosis ([2]; 11.11 µM) [%] | synaptosome phagocytosis ([2]; 22.22 µM) [%]
S=C(Nc1ccccc1)Nc1nccs1 [1-Phenyl-3-(2-thiazolyl)-2-thiourea] | -7.1 | 3.2 | 27.7 | 7.6 | 25.2 | 134 | 105 | 107 | 82.3 | 75.5
O=C(O)/C=C/C(O)c1ccc(Cl)cc1 (stereo not given) | -11.8 | -15.8 | -4.2 | -20 | -3.7 | 96.7 | 96.8 | 110 | 90.5 | 128
O=C1O/C(=C/Br)CCC1c1cccc2ccccc12 (stereo not given) [Bromoenol lactone] | -37.8 | 2.1 | -6.9 | -10.3 | -9.4 | 105 | 80.2 | 77.3 | 101 | 71.7
Nn1nnc2ccccc21 [1-Aminobenzotriazole] | -9.5 | -4.5 | -14.3 | 7.6 | 5.6 | 103 | 99 | 102 | 77.5 | 111
Nc1ncnc2c1c(-c1ccc(Oc3ccccc3)cc1)cn2C1CCCC1 | 4.6 | 1.7 | 17.3 | 19.3 | 70.4 | 126 | 100 | 128 | 103 | 86
N[C@@H](Cc1ccc(O)c(O)c1)C(=O)O [L-3,4-Dihydroxyphenylalanine] | 3.8 | -7.7 | 10.7 | 18.4 | 6.4 | 87.7 | 112 | 125 | 92.1 | 100
N[C@@H](Cc1ccc(O)c(I)c1)C(=O)O [3-Iodo-L-tyrosine] | -2.4 | 13.1 | 14.6 | 1.9 | 15.9 | 109 | 92.5 | 117 | 104 | 140
O=c1ccc2c(OCCCCc3ccccc3)c3ccoc3cc2o1 [Psora-4] | -12.8 | -22.3 | -23.5 | -22 | 4.9 | 88.5 | 114 | 69.8 | 99.9 | 95.6

One compound at a time, from the list above. Order of values: loss of total cells ([1]; 1.39 µM) [%] | loss of total cells ([1]; 2.78 µM) [%] | loss of total cells ([1]; 5.56 µM) [%] | loss of total cells ([1]; 11.11 µM) [%] | loss of total cells ([1]; 22.22 µM) [%] | synaptosome phagocytosis ([2]; 1.39 µM) [%] | synaptosome phagocytosis ([2]; 2.78 µM) [%] | synaptosome phagocytosis ([2]; 5.56 µM) [%] | synaptosome phagocytosis ([2]; 11.11 µM) [%] | synaptosome phagocytosis ([2]; 22.22 µM) [%]
O=C1O/C(=C/Br)CCC1c1cccc2ccccc12 (stereo not given) [Bromoenol lactone] reads -37.8 | 2.1 | -6.9 | -10.3 | -9.4 | 105 | 80.2 | 77.3 | 101 | 71.7
Nn1nnc2ccccc21 [1-Aminobenzotriazole] reads -9.5 | -4.5 | -14.3 | 7.6 | 5.6 | 103 | 99 | 102 | 77.5 | 111
